Measured data: PubChem BioAssay AID504784 (Drosophila RNAi Screening Center, 2011)

Assay: 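Search for regulators of lipid droplet storage in oleate-fed fly cells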 (primary screen)
Cells: Drosophila Kc167 embryonic cells
Reagents: long dsRNA against Drosophila genes, about 250 ng dsRNA per well
Timing: 4 days
Conditions: cells fed 400 µM oleic acid bound to BSA
Measured: 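Cells imaged and segmented; ratio of lipid droplet area to nuclear area, log-transformed, then normalised as a B-score over the screen; higher means more stored lipid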
Direction: droplet/nuclear area B-score: higher = more stored lipid (overstorage)
In all, the deposit lists about 17,000 reagents; below is an unselected part of those that have a named target and a result. 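Each column is one replicate's B-score; the combined score over replicates was not deposited, so single values may mislead.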 Reagents against one gene are numbered here. A plus sign joins genes that one reagent is predicted to hit.

TfAP-2 (Transcription factor AP-2)
- droplet/nuclear area B-score, replicate 1: 2.85
- droplet/nuclear area B-score, replicate 2: -0.343

CG31176 #1
- droplet/nuclear area B-score, replicate 1: -0.584
- droplet/nuclear area B-score, replicate 2: 0.672

CG31176 #2
- droplet/nuclear area B-score, replicate 1: 0.626
- droplet/nuclear area B-score, replicate 2: 0.889

Orc5 (Origin recognition complex subunit 5)
- droplet/nuclear area B-score, replicate 1: 0.0373
- droplet/nuclear area B-score, replicate 2: -0.642

Ugt35E2 (UDP-glycosyltransferase family 35 member E2)
- droplet/nuclear area B-score, replicate 1: 1.25
- droplet/nuclear area B-score, replicate 2: -0.468

CG10466
- droplet/nuclear area B-score, replicate 1: 0.442
- droplet/nuclear area B-score, replicate 2: -0.44

CG10950
- droplet/nuclear area B-score, replicate 1: 0.395
- droplet/nuclear area B-score, replicate 2: 0.31

CG12637
- droplet/nuclear area B-score, replicate 1: -0.491
- droplet/nuclear area B-score, replicate 2: -0.864
- droplet/nuclear area B-score, replicate 3: 1.08

Vha14-2 (Vacuolar H[+] ATPase 14kD subunit 2)
- droplet/nuclear area B-score, replicate 1: 1.07
- droplet/nuclear area B-score, replicate 2: 0.402

fs(1)K10 (female sterile (1) K10)
- droplet/nuclear area B-score, replicate 1: 1.11
- droplet/nuclear area B-score, replicate 2: -0.00339

CG9795
- droplet/nuclear area B-score, replicate 1: -1.11
- droplet/nuclear area B-score, replicate 2: 0.219
- droplet/nuclear area B-score, replicate 3: 0.346

Cyp9f3 (Cytochrome P450 9f3)
- droplet/nuclear area B-score, replicate 1: -2.53
- droplet/nuclear area B-score, replicate 2: -1.43

CG8924 #1
- droplet/nuclear area B-score, replicate 1: 0.561
- droplet/nuclear area B-score, replicate 2: -0.715
- droplet/nuclear area B-score, replicate 3: -0.409

CG8924 #2
- droplet/nuclear area B-score, replicate 1: -1.45
- droplet/nuclear area B-score, replicate 2: 0.697

CG6614
- droplet/nuclear area B-score, replicate 1: 0.558
- droplet/nuclear area B-score, replicate 2: 0.702

CG31664
- droplet/nuclear area B-score, replicate 1: -0.434
- droplet/nuclear area B-score, replicate 2: 0.102

Pcp (Pupal cuticle protein)
- droplet/nuclear area B-score, replicate 1: -0.0553
- droplet/nuclear area B-score, replicate 2: 0.101

spdi (split discs) #1
- droplet/nuclear area B-score, replicate 1: -1.61

spdi (split discs) #2
- droplet/nuclear area B-score, replicate 1: 1.13
- droplet/nuclear area B-score, replicate 2: 1.56

CG6788
- droplet/nuclear area B-score, replicate 1: -1.3
- droplet/nuclear area B-score, replicate 2: 1.22

CG18266
- droplet/nuclear area B-score, replicate 1: -1.59
- droplet/nuclear area B-score, replicate 2: 0.775

In a second layout: 4 of the entries above.
{"Gene":"Orc5 (Origin recognition complex subunit 5)","reagent":1,"droplet/nuclear area B-score, replicate 1":0.0373,"droplet/nuclear area B-score, replicate 2":-0.642}
{"Gene":"Ugt35E2 (UDP-glycosyltransferase family 35 member E2)","reagent":1,"droplet/nuclear area B-score, replicate 1":1.25,"droplet/nuclear area B-score, replicate 2":-0.468}
{"Gene":"CG10466","reagent":1,"droplet/nuclear area B-score, replicate 1":0.442,"droplet/nuclear area B-score, replicate 2":-0.44}
{"Gene":"CG10950","reagent":1,"droplet/nuclear area B-score, replicate 1":0.395,"droplet/nuclear area B-score, replicate 2":0.31}

The listing continues.
CG11566 (retired record) + stg1 #1
- droplet/nuclear area B-score, replicate 1: 0.483
- droplet/nuclear area B-score, replicate 2: 0.387

CG11566 (retired record) + stg1 #2
- droplet/nuclear area B-score, replicate 1: 0.69
- droplet/nuclear area B-score, replicate 2: -0.00274

CG11566 (retired record) + stg1 #3
- droplet/nuclear area B-score, replicate 1: -1.21
- droplet/nuclear area B-score, replicate 2: -0.793

CG11566 (retired record) + stg1 #4
- droplet/nuclear area B-score, replicate 1: -0.487
- droplet/nuclear area B-score, replicate 2: -0.363

CG33346
- droplet/nuclear area B-score, replicate 1: 0
- droplet/nuclear area B-score, replicate 2: 1.66

RasGAP1 (Ras GTPase activating protein 1)
- droplet/nuclear area B-score, replicate 1: 0.36
- droplet/nuclear area B-score, replicate 2: -0.456

AGO1 (Argonaute-1)
- droplet/nuclear area B-score, replicate 1: 2.63
- droplet/nuclear area B-score, replicate 2: -3.28

N (Notch)
- droplet/nuclear area B-score, replicate 1: 0.361
- droplet/nuclear area B-score, replicate 2: 0.819

Gpo2 (Glycerophosphate oxidase 2)
- droplet/nuclear area B-score, replicate 1: 1.06
- droplet/nuclear area B-score, replicate 2: 4.01

Msr-110
- droplet/nuclear area B-score, replicate 1: 0.861
- droplet/nuclear area B-score, replicate 2: -0.477

CG31205
- droplet/nuclear area B-score, replicate 1: 1.45
- droplet/nuclear area B-score, replicate 2: -0.0188

CG10077
- droplet/nuclear area B-score, replicate 1: -0.668
- droplet/nuclear area B-score, replicate 2: -1.11

Lcp1Psi (Larval cuticle protein 1 pseudogene)
- droplet/nuclear area B-score, replicate 1: -0.313
- droplet/nuclear area B-score, replicate 2: -0.495

sgg (shaggy) #1
- droplet/nuclear area B-score, replicate 1: -0.0752
- droplet/nuclear area B-score, replicate 2: 2.28

sgg (shaggy) #2
- droplet/nuclear area B-score, replicate 2: 0.57

sgg (shaggy) #3
- droplet/nuclear area B-score, replicate 1: 0.382
- droplet/nuclear area B-score, replicate 2: -0.101

CG16700
- droplet/nuclear area B-score, replicate 1: -1.05
- droplet/nuclear area B-score, replicate 2: 1.22

Ncc69 (sodium chloride cotransporter 69) #1
- droplet/nuclear area B-score, replicate 1: 0.713
- droplet/nuclear area B-score, replicate 2: -0.764

Ncc69 (sodium chloride cotransporter 69) #2
- droplet/nuclear area B-score, replicate 1: 1.76
- droplet/nuclear area B-score, replicate 2: -1.46
